Reference: paper PMC6890807
Results are given in words; binding and its absence hold for the method and conditions named. Binding seen in cells or lysates may run through a third protein. Some results given as binding are weak or reduced against the parent protein; the word gives no strength. Where a sequence is shown, tags or fusion partners need not be part of it.

Target: T1, His6-ZEB1 (full-length rat ZEB1 in pcDNA4/HisMaxB) (rat) (UniProt Q62947)
T1 sequence: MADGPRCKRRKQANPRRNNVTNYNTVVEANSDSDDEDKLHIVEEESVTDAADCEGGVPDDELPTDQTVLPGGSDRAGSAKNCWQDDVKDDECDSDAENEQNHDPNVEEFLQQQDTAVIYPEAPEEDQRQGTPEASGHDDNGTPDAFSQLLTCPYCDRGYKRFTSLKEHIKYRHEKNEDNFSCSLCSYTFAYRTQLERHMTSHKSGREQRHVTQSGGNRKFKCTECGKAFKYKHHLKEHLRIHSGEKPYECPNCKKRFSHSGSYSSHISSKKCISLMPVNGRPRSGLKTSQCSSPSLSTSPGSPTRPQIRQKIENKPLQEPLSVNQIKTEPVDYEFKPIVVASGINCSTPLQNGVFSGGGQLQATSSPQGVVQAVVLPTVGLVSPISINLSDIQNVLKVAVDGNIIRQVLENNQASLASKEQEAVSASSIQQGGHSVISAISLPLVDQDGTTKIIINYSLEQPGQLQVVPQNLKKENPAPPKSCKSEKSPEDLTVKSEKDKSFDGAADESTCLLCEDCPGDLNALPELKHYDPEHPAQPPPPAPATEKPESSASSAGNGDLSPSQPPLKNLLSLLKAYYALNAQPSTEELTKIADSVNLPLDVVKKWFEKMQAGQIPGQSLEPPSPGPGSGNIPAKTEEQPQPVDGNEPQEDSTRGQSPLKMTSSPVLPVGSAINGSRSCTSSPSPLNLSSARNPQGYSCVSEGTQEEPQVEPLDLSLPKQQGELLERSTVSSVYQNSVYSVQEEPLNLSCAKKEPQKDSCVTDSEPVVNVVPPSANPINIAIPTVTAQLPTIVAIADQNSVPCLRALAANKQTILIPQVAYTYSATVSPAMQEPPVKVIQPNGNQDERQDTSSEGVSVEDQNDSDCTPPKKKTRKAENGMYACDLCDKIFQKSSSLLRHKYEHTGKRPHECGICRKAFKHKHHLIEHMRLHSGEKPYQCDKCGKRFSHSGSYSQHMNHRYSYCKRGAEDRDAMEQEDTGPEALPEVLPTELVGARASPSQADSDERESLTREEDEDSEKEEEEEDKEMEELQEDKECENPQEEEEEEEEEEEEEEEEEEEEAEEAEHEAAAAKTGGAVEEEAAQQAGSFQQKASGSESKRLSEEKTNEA
Assay: pull-down; His6-ZEB1 and untagged PKCα co-transfected in HEK-293T for 48 h; cells pretreated with PMA 10 nM for 15 min; Ni-NTA agarose, non-denaturing conditions; Western blot of the eluate

## PKCα (untagged) (from UniProt P17252 1-672) (enzyme)
  binding: binds
